Assay results taken from PubChem BioAssay AID1347076 (National Center for Advancing Translational Sciences (NCATS), 2019).
“And” between values parts separate entries of the source, which are not always exact repeats. Equal entries are not always repeated. Screen size: about 400,000 compounds; about 13,000 (3.2%) were called active. The shares of active, inactive and inconclusive entries below differ from those in the screen. Calls follow the shape of the dose curve; as a rule, active = well fitted cell-killing curve with a large enough effect; inconclusive = small, poorly fitted or top-dose-only effect, or effect the other way; inactive = flat fitted curve, though single readings scatter. Potencies of inconclusive entries are doubtful fits and often do not repeat.
% is scaled to controls: 0 for no effect and ±100 for the full control effect; potency is read from the fitted curve at half-maximal effect.

Test: qHTS assay for MDR1-selective chemotherapeutics: Primary screen using the drug-selected MDR subline cells KB-V1; also: nearly all actives have a fitted effect of over 60% in size
Conditions: KB-V1 MDR cells viability, CellTiter-Glo, 72 h; activity change, negative = cytotoxicity: at 46.1 µM (top of the series)
How it was run: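 KB-V1, DMEM (no phenol red) + 10% FBS; cpd pin-transferred, titration series; 72 h, 37 degrees C; CellTiter-Glo, luminescence. Data normalized, curve-fit.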
For Cc1ccc(OCCN(C)C(=O)c2cc(COc3ccc(F)cc3F)on2)cc1, the “activity change, negative = cytotoxicity” value was inactive: -1.57%.
For COc1cccc(-c2cc(C(=O)N3CC4(C)CC3CC(C)(C)C4)no2)c1 (stereo not drawn), the Potency was active: 14.6 µM.
With COC(=O)c1ccc2nc(-c3cccc(Br)c3)c(Cc3ccccc3C(F)(F)F)n2c1 the Potency was inconclusive: 9.2 µM [cytotoxic, partial curve].
In the case of CC1=C(C(=O)N(C)C)CC(CC(=O)NC2CCCCC2)C(=O)N1CCCN1CCCC1=O (stereo not drawn), the “activity change, negative = cytotoxicity” value is reported as inactive: 8.85%.
For Cc1cccc(NC(=O)c2cc(=O)n(Cc3ccccc3)c(=O)[nH]2)c1, the Potency was inconclusive: 25.9 µM [rising, single point].
For COC(=O)c1cccnc1-n1c(=O)c2cccnc2n(Cc2ccc(Cl)cc2)c1=O, the Potency was active: 23.1 µM.
For CCOc1ccc(CN2CCNC(=O)C2CC(=O)NCCCn2ccnc2)cc1 (stereo not drawn), the Potency was inconclusive: 16.4 µM [rising, partial curve, poor fit].
With CCN(CC)CCNC(C(=O)Nc1cc(C(F)(F)F)ccc1Cl)c1ccccc1 (stereo not drawn) the Potency was inconclusive: 29.1 µM [cytotoxic, single point].
In the case of CN(C)c1ccc(/C=N/NC(=O)C(O)c2ccc(Br)cc2)cc1 (stereo not drawn), the activity change, negative = cytotoxicity is reported as inconclusive: 0%.
With COc1ccc2c(c1)CCc1c(C(=O)N3CCCCCC3)noc1-2 the Potency was active: 14.6 µM.
For CC(C)CN(C(=O)c1ccc(Br)o1)C1CCS(=O)(=O)C1 (stereo not drawn), the “activity change, negative = cytotoxicity” value was inactive: 0.0858%.
With CCN(CC)S(=O)(=O)c1ccc(C(=O)NC2CC(=O)N(c3ccc4c(c3)OCCO4)C2)cc1 (stereo not drawn) the Potency was inconclusive: 29.1 µM [rising, single point].
With Cc1ccc(CC(=O)N2CCN(S(=O)(=O)c3ccccc3)CC2)cc1C the Potency was inconclusive: 29.1 µM [cytotoxic, single point].
In the case of COCCCn1c(C(=O)NCCC2=CCCCC2)cc2c(=O)n3cccc(C)c3nc21, the “activity change, negative = cytotoxicity” value is reported as inactive: -7.86%.
For Cc1c(C(=O)OC2CCCCCC2)[nH]c2c1C(=O)CC(c1ccccc1Cl)C2 (stereo not drawn), the Potency was inconclusive: 3.26 µM [cytotoxic, full curve].
In the case of COc1cccc(CN2CCNC(=O)C2CC(=O)N(C)CC2CCOCC2)c1OC (stereo not drawn), the Potency is reported as inconclusive: 25.9 µM [rising, single point].
For COc1cc(/C=C/C(=O)OCC(=O)NCc2ccco2)ccc1O, the Potency was inconclusive: 18.4 µM [cytotoxic, single point].
For Cc1cccc(C)c1NC(=O)CSc1ncnc2[nH]ncc12, the Potency was inconclusive: 20.6 µM [cytotoxic, partial curve].
For O=C(NCCCN1CCOCC1)c1ccc(-n2nc(C(F)(F)F)cc2-c2cccs2)cc1, the Potency was inconclusive: 16.4 µM [cytotoxic, partial curve].
In the case of COC(=O)C1=C(C)NC(C)=C(C(=O)OC)C1c1ccc(-c2cccc(Cl)c2Cl)o1, the Potency is reported as active: 16.4 µM.
In the case of CCOc1ccc2[nH]c(=S)[nH]c2c1, the Potency is reported as inconclusive: 29.1 µM [cytotoxic, single point].
With COc1cc(C(=O)N(Cc2cccc(Cl)c2)C2CCS(=O)(=O)C2)cc(OC)c1OC (stereo not drawn) the “activity change, negative = cytotoxicity” value was inactive: 16.6%.
For O=C1Nc2ccccc2N(O)N1c1ccc(S(=O)(=O)N2CCOCC2)cc1, the Potency was inconclusive: 18.4 µM [rising, partial curve, poor fit].
In the case of CCn1c(O)c(N=NC(=O)CNC(=O)c2cccnc2)c2ccccc21, the Potency is reported as inconclusive: 25.9 µM [cytotoxic, partial curve, poor fit].
In the case of Cc1ccc(C(=O)COc2nc(C)cc(C)c2C#N)cc1, the Potency is reported as active: 10.3 µM.
For COc1ccc(CCNC(=O)COC(=O)Cn2cnc3c2c(=O)n(C)c(=O)n3C)cc1, the “activity change, negative = cytotoxicity” value was inactive: 26.2%.
For CCN(CC)S(=O)(=O)c1ccc(C(=O)Nc2nnc(CSC)o2)cc1, the Potency was inconclusive: 4.11 µM [rising, full curve].
In the case of Fc1ccc(CNC(=S)Nc2ccc(Cl)cc2Cl)cc1, the Potency is reported as inconclusive: 20.6 µM [cytotoxic, partial curve, poor fit].
With Fc1ccc(Cn2nnc(-c3ccc(Cl)cc3)n2)cc1 the “activity change, negative = cytotoxicity” value was inactive: 0.0811%.
In the case of CC1Cc2ccccc2N1S(=O)(=O)c1cccc(C(=O)NCCCO)c1 (stereo not drawn), the “activity change, negative = cytotoxicity” value is reported as inactive: -1.92%.
With CN(C)CCNc1oc(/C=C/c2ccccc2)nc1C#N the “activity change, negative = cytotoxicity” value was inactive: -3.45%.
For O=C(NNC(=S)NC(=O)c1ccccc1)c1cccnc1, the “activity change, negative = cytotoxicity” value was inactive: -2.79%.
With COc1ccccc1NC(=O)c1cc(C(=O)Nc2ccccc2OC)n(C)n1 the Potency was inconclusive: 29.1 µM [cytotoxic, single point].
In the case of CC1CCCCN1CC(=O)Nc1ccc(N2CCCCCC2)cc1 (stereo not drawn), the Potency is reported as inconclusive: 18.4 µM [cytotoxic, partial curve, poor fit].
With COc1ccc(CCNC(=O)c2cc3c(=O)n(C)c4cc(Cl)ccc4c3s2)cc1OC the “activity change, negative = cytotoxicity” value was inactive: 0%.
In the case of O=C(CSc1nnnn1-c1ccccc1)NCc1cccs1, the Potency is reported as inconclusive: 9.2 µM [cytotoxic, partial curve].
For N#Cc1nc(Cc2cccc3ccccc23)oc1NCC1CCCO1 (stereo not drawn), the Potency was active: 16.4 µM.
For COC(=O)C(=O)C/C(=N/Nc1ncnc2ccccc12)c1ccc(Cl)cc1, the Potency was inconclusive: 23.1 µM [cytotoxic, single point].
In the case of Cc1ccc(C(=O)OC2CCS(=O)(=O)c3sccc32)cc1 (stereo not drawn), the Potency is reported as inconclusive: 25.9 µM [cytotoxic, single point].
In the case of COc1ccc(NC(=O)N2CCC(CO)(CC3CCCCO3)CC2)c(OC)c1 (stereo not drawn), the “activity change, negative = cytotoxicity” value is reported as inactive: 1.13%.
For O=C(NCC1CCCO1)c1cccc(S(=O)(=O)N(Cc2ccccc2)c2ccccc2)c1 (stereo not drawn), the Potency was active: 8.2 µM.
With Oc1c(C(Nc2cccc(C(F)(F)F)c2)c2cccnc2)ccc2cccnc12 (stereo not drawn) the “activity change, negative = cytotoxicity” value was inactive: -21.9%.
For COc1cccc(NC(=O)C(=O)NCCc2sc(-c3cccc(C)c3)nc2C)c1, the Potency was inconclusive: 8.2 µM [cytotoxic, partial curve].
For CC(C)(O)C#Cc1ccc(C(=O)N2CCCC(CNS(=O)(=O)c3cccs3)C2)o1 (stereo not drawn), the “activity change, negative = cytotoxicity” value was inactive: -13.3%.
In the case of COc1ccc(Nc2nc(N)nc(CSc3nc4ccccc4s3)n2)cc1, the “activity change, negative = cytotoxicity” value is reported as inactive: -29.1%.
For COc1cccc(NC(=O)[C@H](NC(=O)[C@@H]2Cc3ccccc3CN2)c2ccccc2)c1, the “activity change, negative = cytotoxicity” value was inactive: 22.7%.
In the case of Cc1nnc(SC(C)C(=O)Nc2ccc(S(=O)(=O)N3CCCCCC3)cc2)s1 (stereo not drawn), the Potency is reported as active: 16.4 µM.
With COCCNC(=O)C1CCCN(C(=O)c2ccc3sccc3c2)CC1 (stereo not drawn) the “activity change, negative = cytotoxicity” value was inactive: 5.03%.
With CCOC(=S)SCc1cn2cccc(C)c2n1 the “activity change, negative = cytotoxicity” value was inactive: 3.9%.
With CCN1C(=O)c2ccccc2Sc2ccc(NC(=O)Nc3ccc(Br)c(C)c3)cc21 the Potency was inconclusive: 29.1 µM [cytotoxic, single point].
In the case of O=c1oc2c3c4c(cc2c2c1CCC2)OCCN4CCC3, the Potency is reported as inconclusive: 29.1 µM [cytotoxic, single point].
For O=C(COc1ccccc1)Nc1nc(-c2ccncc2)cs1, the Potency was inconclusive: 20.6 µM [cytotoxic, single point].
In the case of COc1c(CC=C(C)C)cc(C2CC(=O)c3c(O)cc(O)cc3O2)cc1CC=C(C)C (stereo not drawn), the Potency is reported as inconclusive: 18.4 µM [cytotoxic, single point].
In the case of CCc1ccc(-c2nc(CN3CCCC(C(=O)NCCc4ccc(OC)c(OC)c4)C3)c(C)o2)cc1 (stereo not drawn), the Potency is reported as active: 2.31 µM.
For Cc1ccc(/C=N/n2c(COc3ccccc3)n[nH]c2=S)cc1, the Potency was inconclusive: 16.4 µM [cytotoxic, single point].
With CCCCNCc1cc(Br)c(OCC(=O)NCc2ccccc2)c(OC)c1 the Potency was inconclusive: 4.61 µM [cytotoxic, full curve, poor fit].
For COc1cc(OC)cc(C(=O)NCC2CCCN(Cc3cccc(C(C)=O)c3)C2)c1 (stereo not drawn), the Potency was inconclusive: 29.1 µM [rising, single point].
With Cc1c(/C(O)=C2\C(=O)C(=O)N(CCN(C)C)C2c2cccnc2)cnn1-c1ccccc1 (stereo not drawn) the Potency was inconclusive: 25.9 µM [rising, single point].
In the case of COC(=O)c1ccccc1S(=O)(=O)N1CCC(c2nc3ccccc3o2)CC1, the Potency is reported as active: 11.6 µM.
With Cc1ccc(S(=O)(=O)N(CC(=O)Nc2ccccc2-c2ccccc2)c2ccc(C)cc2C)cc1 the Potency was inconclusive: 18.4 µM [cytotoxic, partial curve].
For CC1CCN(S(=O)(=O)c2cn(CC(=O)Nc3cccc(C#N)c3)cn2)CC1, the Potency was inconclusive: 8.2 µM [rising, partial curve].
With Cc1ccc(-c2nc(CSc3nc4ccccc4c(=O)n3C)cs2)cc1 the Potency was active: 11.6 µM.
In the case of CN(CC(=O)NC1CCN(Cc2ccccc2)CC1)S(=O)(=O)c1ccc(Cl)s1, the Potency is reported as inconclusive: 0.326 µM [cytotoxic, single point].
For COC(=O)c1ccc(NC(=O)c2cc3c(CO)cnc(C)c3oc2=Nc2cccc(C(N)=O)c2)cc1, the Potency was inconclusive: 16.4 µM [rising, single point].
With CCc1nnc(SCC(=O)Nc2ccccc2Cl)nc1CC the Potency was inconclusive: 13 µM [cytotoxic, partial curve].
In the case of COc1ccc(CCNC(=O)c2nnn(-c3ccc4c(c3)OCCO4)c2N)cc1OC, the Potency is reported as inconclusive: 18.4 µM [cytotoxic, single point].
For Cc1ccc(C)c(NC(=O)CC2NCCNC2=O)c1 (stereo not drawn), the “activity change, negative = cytotoxicity” value was inactive: 20.3%.
In the case of O=C(NCc1ccco1)c1cc2sccc2n1Cc1ccc(F)cc1, the Potency is reported as active: 16.4 µM.
With COc1ccc(OC)c(/C=C/c2ccnc3ccccc23)c1 the Potency was active: 6.51 µM and active: 5.17 µM.
In the case of O=C(Cn1nc(C(=O)O)c2ccccc2c1=O)Nc1cc(C(F)(F)F)ccc1-n1cncn1, the Potency is reported as inconclusive: 29.1 µM [rising, single point].
For C1=C(c2ccc(-c3ccccc3)cc2)Nc2ncnn2C1c1ccco1 (stereo not drawn), the Potency was inconclusive: 20.6 µM [cytotoxic, partial curve].
With Cc1nc2scc(C)n2c(=O)c1S(=O)(=O)N1CCN(c2ccccc2)CC1 the “activity change, negative = cytotoxicity” value was inactive: -29.3%.
With Cc1nc(N2CCCCC2C)c2c(C)c(C(=O)Nc3cccc(C(F)(F)F)c3)sc2n1 (stereo not drawn) the Potency was inconclusive: 16.4 µM [cytotoxic, partial curve, poor fit].
